Results from US20200155714A1, “DUAL-TARGET IMAGING MOLECULAR PROBE, PREPARATION METHOD THEREFOR, AND APPLICATIONS THEREOF” (PEKING UNION MEDICAL COLLEGE HOSPITAL, CHINESE ACADEMY OF …, priority 2017, published 2020).
At least one peptide structure holds a part that was inferred or is arguable (an end, a ring closure or a residue).

Key:
[1] = test system: non-small cell lung cancer A549 tumor; assay: MicroPET imaging of non-small cell lung cancer A549 tumor-bearing mice; type: in vivo; conditions: 60 min
[2] = test system: non-small cell lung cancer; assay: PET/CT imaging in patients with non-small cell lung cancer; type: in vivo, human; conditions: non-small cell lung cancer patient, intravenous, PET/CT 30 min after injection
[3] = test system: small cell lung cancer; assay: PET/CT imaging in patients with small cell lung cancer; type: in vivo, human; conditions: small cell lung cancer patient, intravenous, PET/CT 30 min after injection
[4] = test system: small cell lung cancer H69 tumor; assay: MicroPET imaging of small cell lung cancer H69 tumor-bearing mice; type: in vivo; conditions: 60 min
[5] = Determination of in vitro stability in fetal bovine serum; type: in vitro ADME; conditions: HPLC
[6] = co-injection of unlabeled RGD+TATE
[7] = probe injected alone, tail vein 100-200 μCi

SMILES: CC(O)[C@@H]1NC(=O)[C@H](CCCCN)NC(=O)[C@@H](Cc2c[nH]c3ccccc23)NC(=O)[C@H](Cc2ccc(O)cc2)NC(=O)[C@@H](NC(=O)[C@@H](Cc2ccccc2)NC(=O)COCCOCCOCCOCCNC(=O)C(CCC(=O)NCCOCCOCCOCCOCC(=O)NCCCC[C@@H]2NC(=O)[C@@H](Cc3ccc(O)cc3)NC(=O)[C@H](CC(=O)O)NC(=O)CNC(=O)[C@H](CCCNC(=N)N)NC2=O)NC(=O)COCCOCCOCCOCCNC(=S)Nc2ccc(CC3CN(CC(=O)O)CCN(CC(=O)O)CCN3CC(=O)O)cc2)CSSC[C@@H](C(=O)N[C@H](C(=O)O)[C@@H](C)O)NC1=O (stereo partly drawn) [^68Ga-NOTA-3PEG4-TATE-RGD, metal not drawn]
- tumor uptake value [1, 6]: 1.35±0.26
- tumor uptake value ([1]; co-injection of unlabeled RGD): 1.75±0.53
- tumor uptake value ([1]; co-injection of unlabeled TATE): 3.80±0.48
- tumor uptake value [1, 7]: 6.46±0.59
- highest standard uptake value of tumor (SUVmax) [2]: 3.4
- highest standard uptake value of tumor (SUVmax) [3]: 18.2
- tumor uptake value [4, 6]: 1.05±0.13
- tumor uptake value ([4]; co-injection of unlabeled RGD): 8.23±1.08
- tumor uptake value ([4]; co-injection of unlabeled TATE): 1.41±0.73
- tumor uptake value [4, 7]: 9.78±2.77
- radiochemical purity ([5]; 60 min): 98%
- radiochemical purity ([5]; 120 min): 97%
